Data: paper PMC7819943, “Rice protein-binding microarrays: a tool to detect cis-acting elements near promoter regions in rice”
Some of the results follow.

By UniProt entry, the sequences of proteins in these tests, tags left out.
UniProt Q0JBA9, entry or part of it: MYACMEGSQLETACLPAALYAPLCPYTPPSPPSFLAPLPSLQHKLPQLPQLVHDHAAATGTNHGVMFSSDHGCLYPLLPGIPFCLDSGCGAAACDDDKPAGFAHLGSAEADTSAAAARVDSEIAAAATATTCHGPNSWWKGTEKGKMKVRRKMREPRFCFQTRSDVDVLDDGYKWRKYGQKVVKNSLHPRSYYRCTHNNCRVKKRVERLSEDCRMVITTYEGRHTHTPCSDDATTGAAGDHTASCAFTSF

molecular target: OsWRKY34 (Oryza sativa, UniProt Q0JBA9 1-250); assay: protein-binding microarray (RPBM); PBS, 2% BSA, 51.3 ng/ul salmon testes DNA, 50 uM zinc acetate, 200 nM TF, 25 C, 1 h; high values mean tight binding; settings: protein: recombinant; tags: N-terminal polyhistidine and DsRed monomer fusion (pET32a); label: CyDye5-dUTP incorporated in the synthesized complementary strand; 3' TTTTT single-stranded linker to array surface; dsDNA, one strand shown
Method in brief: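 Binding signal is reported as fluorescence intensity per feature (arbitrary units) from an Axon 4000B scanner. Incubation used 200 nM of each Ni–NTA-purified, N-terminally polyhistidine- and DsRed-fused transcription factor from E. coli BL21-CodonPlus on a double-stranded custom Agilent array for 1 h at 25 °C, with 50 µM zinc acetate in the buffer, followed by washing.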

Row | Sequence | binding signal
1 | TTCAAGGTCTGTTCAAGAACATAATTACAATTCTTCCATCCGGAGTCACCTAGTGCAG | 11700 fluorescence intensity (a.u.)
2 | CTTGCCGTGTCCACCGCTGTGCCCATACCAATCCATAGTACGGAGTCACCTAGTGCAG | 10800 fluorescence intensity (a.u.)
3 | GTCACCTTTGTTCTAGTTTTTAGCATTTTTGTCGTTATGGCGGAGTCACCTAGTGCAG | 11100 fluorescence intensity (a.u.)
4 | GACATATATACACCGATCTGATCTGATCCAATCCTTGCTTCGGAGTCACCTAGTGCAG | 8530 fluorescence intensity (a.u.)
5 | TCCTCCCGTGCCGACCATTTGGCGTCTCTCCCTTACTGCCCGGAGTCACCTAGTGCAG | 12100 fluorescence intensity (a.u.)
6 | AATTAACACCATTTCTCTACCTTGATGCGATCCTTTAAACCGGAGTCACCTAGTGCAG | 9210 fluorescence intensity (a.u.)
7 | ACTCCACATTATGGCCGGCACATTTGTCATACTACCTACTCGGAGTCACCTAGTGCAG | 9760 fluorescence intensity (a.u.)
8 | GTTTGATTTTTTTTGTCCCCGGTGATTTGATTCAAATTCACGGAGTCACCTAGTGCAG | 10700 fluorescence intensity (a.u.)
9 | CGTCATGCTCGCCGGATCTGGCCGAGCCACCGCCGTTGTCCGGAGTCACCTAGTGCAG | 8230 fluorescence intensity (a.u.)
10 | TATACTTGCGTTATTTCACTATCATGACCGCTGTTTCGCACGGAGTCACCTAGTGCAG | 10200 fluorescence intensity (a.u.)
11 | GGTTTTCATCATCTGGTATCTCAATGTTATCATTAATTTACGGAGTCACCTAGTGCAG | 10600 fluorescence intensity (a.u.)
12 | AGCTCCATCCGCAACCGCAAATGACGCTTCCCAGCCGCGACGGAGTCACCTAGTGCAG | 8490 fluorescence intensity (a.u.)
13 | TCCTTATCCTCTTCTCCTTTCTTCTTCTGCCTTGACCCTCCGGAGTCACCTAGTGCAG | 11300 fluorescence intensity (a.u.)
14 | TTCACTCCAAACTACAACAATTCAATTCTGCCATTTGTTTCGGAGTCACCTAGTGCAG | 8630 fluorescence intensity (a.u.)
15 | TCTTCGTTGCCCCTTGTTTTCACCATGTCACTGTTGAACACGGAGTCACCTAGTGCAG | 8860 fluorescence intensity (a.u.)
16 | ACCACGTAAAATATCCAAACTGCCGTGTCCATCGTTTTCCCGGAGTCACCTAGTGCAG | 8330 fluorescence intensity (a.u.)
17 | GACACCCGCTGCTCTTCTCTCTCTTCCTTTATCTCTTTAACGGAGTCACCTAGTGCAG | 10300 fluorescence intensity (a.u.)
18 | CTTTTCCCCGCGGCCATCCCCGTCGCCCCACCGCCGCCGCCGGAGTCACCTAGTGCAG | 11200 fluorescence intensity (a.u.)
19 | AAGATCGTATTACCCTTCGCCTTCGCCTCGTCGGCCATTACGGAGTCACCTAGTGCAG | 9560 fluorescence intensity (a.u.)
20 | AAGCTAGTCAAACCGTTGACTACCACTGTCTTTGTTGCGCCGGAGTCACCTAGTGCAG | 16800 fluorescence intensity (a.u.)
21 | TTGCCACACTTGTGATTAACTATTTCTTGGCCATACTTTTCGGAGTCACCTAGTGCAG | 10100 fluorescence intensity (a.u.)

Row | Sequence | binding signal
22 | TTTTTGGTTACTTGTCACAATTGTTTCTTAGCTTCATGGCCGGAGTCACCTAGTGCAG | 11100 fluorescence intensity (a.u.)
23 | ATATCCAATCCTGCATATCATCATCGTCTTTGCGGGAAATCGGAGTCACCTAGTGCAG | 8830 fluorescence intensity (a.u.)
24 | TCACCGATTCACTCTCCTAGTCCTAGAGTCCTGGTCCATCCGGAGTCACCTAGTGCAG | 8440 fluorescence intensity (a.u.)
25 | TTCTCGATCGTTTCTTTCCCGCAATATTCCTCATCCTTGTCGGAGTCACCTAGTGCAG | 11900 fluorescence intensity (a.u.)
26 | TCTTCATGCGACCATTACTCGCCCGTTGTCCGATAGCGCGCGGAGTCACCTAGTGCAG | 8590 fluorescence intensity (a.u.)
27 | CTCCTCGCCACCGTTCTCCGTCCATCCACCGAGTCACCGACGGAGTCACCTAGTGCAG | 11200 fluorescence intensity (a.u.)
28 | AGCTAAGTGCCATATTGCACGTACTCGTTGTCTGTCCGATCGGAGTCACCTAGTGCAG | 8520 fluorescence intensity (a.u.)
29 | TTCCGCTCCCACCACAGTGTGCTGCTCTCGTCAGTTGCCACGGAGTCACCTAGTGCAG | 10300 fluorescence intensity (a.u.)
30 | ACCCCAAGTGTTCACCTCTCTTCTGCTTCATCTCGATCTCCGGAGTCACCTAGTGCAG | 11000 fluorescence intensity (a.u.)
31 | TGGCCCGGTACCCGCACCTCGCCGGGAGGTTCGACGTCGACGGAGTCACCTAGTGCAG | 9640 fluorescence intensity (a.u.)
32 | GGCGATCCGGCTTAACTACTTTGTTTGTTTCTCTGTGCAACGGAGTCACCTAGTGCAG | 8480 fluorescence intensity (a.u.)
33 | CTTAAATTTTCTTTAGATCTTTTGCTTTATCTTGTTATAACGGAGTCACCTAGTGCAG | 8630 fluorescence intensity (a.u.)
34 | CTAAAAGTCAATCCACGCCACCATCGATCTCTCTATCCAACGGAGTCACCTAGTGCAG | 9440 fluorescence intensity (a.u.)
35 | GACGTGCGCAGTGACGCAGCATCCCTCGTCTCCGCTATTTCGGAGTCACCTAGTGCAG | 8160 fluorescence intensity (a.u.)
36 | GGGATCCTGACGATTTTCGCCGCCATCAGTACGTCCGGATCGGAGTCACCTAGTGCAG | 8940 fluorescence intensity (a.u.)
37 | ACCGCCCCGCACCCACCCACCTCTGCCTAGATCCGTCTCCCGGAGTCACCTAGTGCAG | 8730 fluorescence intensity (a.u.)
38 | GCATTCGTCTCGCTGCCCACCTACTTTTCAAACGCGGATGCGGAGTCACCTAGTGCAG | 11700 fluorescence intensity (a.u.)
39 | CTCGGCCATCGATTTCCTCACCCTCTGCCATCGCCTTAAGCGGAGTCACCTAGTGCAG | 11300 fluorescence intensity (a.u.)
40 | CGCCGCTGCCGTTGACCGTGTTCCGGCACTTCTTCACGACCGGAGTCACCTAGTGCAG | 17400 fluorescence intensity (a.u.)
41 | ATTCACCATTTTACCGTTATACCTGGCCACTGTTATATATCGGAGTCACCTAGTGCAG | 11800 fluorescence intensity (a.u.)
42 | ATGCACTAGCCAAGTTGTTGTACCTATATACTCATTTTTCCGGAGTCACCTAGTGCAG | 11400 fluorescence intensity (a.u.)
